Source: patent US6881584B1, “Infrared thermography” (SmithKline Beecham Corporation, priority 1998, dated 2005)
At least one structure is not confirmed: it was looked up by name or label, or the drawing left a doubt.

By UniProt entry, the sequences of proteins in these tests, tags left out. Where a name states a change or a piece, a line headed by the entry shows the natural chain unless it says otherwise.
UniProt P13945: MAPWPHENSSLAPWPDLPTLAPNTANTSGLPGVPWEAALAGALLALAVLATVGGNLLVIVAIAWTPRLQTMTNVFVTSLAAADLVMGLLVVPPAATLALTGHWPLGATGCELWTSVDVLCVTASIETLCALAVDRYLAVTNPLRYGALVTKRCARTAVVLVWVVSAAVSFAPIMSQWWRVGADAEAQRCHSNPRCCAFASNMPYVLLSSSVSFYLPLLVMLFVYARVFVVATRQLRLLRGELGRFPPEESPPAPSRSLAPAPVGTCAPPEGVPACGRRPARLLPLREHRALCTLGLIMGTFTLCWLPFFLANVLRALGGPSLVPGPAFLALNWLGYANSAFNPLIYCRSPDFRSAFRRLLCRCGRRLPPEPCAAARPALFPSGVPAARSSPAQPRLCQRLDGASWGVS

Key:
[1] = biological target: T1, beta 3 adrenergic receptor (β3AR) (Homo sapiens, UniProt P13945); experiment: Infrared thermography of CHO cells overexpressing the β3AR receptor; assay type: cell-based
T1 construct: expressed in transfected cells; host or cells: Chinese Hamster Ovary (CHO) cells
Description: Heat generation was measured using a Stirling cooled Agema Thermovision 900 Infrared System AB (Marietta, Ga.) equipped with a SW Scanner and 40°×25° lens which detects a 2-5.4 micron spectral response. […] The focal distance was 6 cm. Images were captured using a recurs function set at 16 or an averaging function set at 32. The data was analyzed using OS-9 advanced systems and ERIKA 2.00 software according to the manufacturer's specifications (FLIR Infrared Systems AB, Danderyd, Sweden). Thermography of adipocytes was performed by maintaining the ambient temperature of the cultured cells at 37±0.02° C. using a Queue Systems Inc. (Parkersburg, W.Va.) incubator, model QWJ500SABA. Spectral analysis of yeast was performed at 30±0.02° C. using the same incubator system. After treating the cells with experimental agents (e.g., rotenone etc.), the temperature was equilibrated for 10 minutes in the incubator before measuring real time thermogenesis for all microtiter plate applications. Various color scales in the visible wavelength were used to depict the temperature fluctuations of the recorded images. Although temperature scales are constant, the color scale images are variable and can be adjusted with level and span controls.

[2] = system: C3H10T1/2 cells; experiment: Triglyceride accumulation (adipogenesis marker) in C3H10T1/2 cells; assay type: cell-based; settings: 7 days in culture

| Compound | thermogenic response of CHO cells [1] | triglyceride accumulation [2] |
| --- | --- | --- |
| C=C[C@@]1(C)CC(=O)[C@]2(O)[C@@]3(C)[C@@H](O)CCC(C)(C)[C@@H]3[C@H](O)[C@H](OC(C)=O)[C@@]2(C)O1 [forskolin] | dose-dependent response | – |
| Cc1c(C)c2c(c(C)c1O)CCC(C)(COc1ccc(CC3SC(=O)NC3=O)cc1)O2 (centres unmarked) [troglitazone] | – | increased |
